In the supplement of paper PMC11732987, “Enantioselective OTUD7B fragment discovery through chemoproteomics screening and high-throughput optimisation” (Communications Chemistry, 2025):
The list shows a part of the results. The data scatter; read single values as rough.

By UniProt entry, the sequences of proteins in these tests, tags left out. Where a name states a change or a piece, a line headed by the entry shows the natural chain unless it says otherwise. Residues count along the entry.
UniProt O75449: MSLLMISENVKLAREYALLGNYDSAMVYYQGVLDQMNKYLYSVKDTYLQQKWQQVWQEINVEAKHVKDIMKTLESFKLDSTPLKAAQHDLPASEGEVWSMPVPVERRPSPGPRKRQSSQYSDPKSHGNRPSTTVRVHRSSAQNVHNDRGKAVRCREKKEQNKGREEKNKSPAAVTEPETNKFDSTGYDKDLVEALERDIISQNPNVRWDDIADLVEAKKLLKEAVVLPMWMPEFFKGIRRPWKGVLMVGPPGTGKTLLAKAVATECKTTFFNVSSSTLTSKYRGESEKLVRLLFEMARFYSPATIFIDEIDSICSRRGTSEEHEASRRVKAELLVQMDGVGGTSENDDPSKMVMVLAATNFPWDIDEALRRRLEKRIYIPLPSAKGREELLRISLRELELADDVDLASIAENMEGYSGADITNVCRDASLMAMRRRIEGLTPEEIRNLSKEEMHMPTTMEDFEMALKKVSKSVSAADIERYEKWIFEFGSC
UniProt Q9ULH0: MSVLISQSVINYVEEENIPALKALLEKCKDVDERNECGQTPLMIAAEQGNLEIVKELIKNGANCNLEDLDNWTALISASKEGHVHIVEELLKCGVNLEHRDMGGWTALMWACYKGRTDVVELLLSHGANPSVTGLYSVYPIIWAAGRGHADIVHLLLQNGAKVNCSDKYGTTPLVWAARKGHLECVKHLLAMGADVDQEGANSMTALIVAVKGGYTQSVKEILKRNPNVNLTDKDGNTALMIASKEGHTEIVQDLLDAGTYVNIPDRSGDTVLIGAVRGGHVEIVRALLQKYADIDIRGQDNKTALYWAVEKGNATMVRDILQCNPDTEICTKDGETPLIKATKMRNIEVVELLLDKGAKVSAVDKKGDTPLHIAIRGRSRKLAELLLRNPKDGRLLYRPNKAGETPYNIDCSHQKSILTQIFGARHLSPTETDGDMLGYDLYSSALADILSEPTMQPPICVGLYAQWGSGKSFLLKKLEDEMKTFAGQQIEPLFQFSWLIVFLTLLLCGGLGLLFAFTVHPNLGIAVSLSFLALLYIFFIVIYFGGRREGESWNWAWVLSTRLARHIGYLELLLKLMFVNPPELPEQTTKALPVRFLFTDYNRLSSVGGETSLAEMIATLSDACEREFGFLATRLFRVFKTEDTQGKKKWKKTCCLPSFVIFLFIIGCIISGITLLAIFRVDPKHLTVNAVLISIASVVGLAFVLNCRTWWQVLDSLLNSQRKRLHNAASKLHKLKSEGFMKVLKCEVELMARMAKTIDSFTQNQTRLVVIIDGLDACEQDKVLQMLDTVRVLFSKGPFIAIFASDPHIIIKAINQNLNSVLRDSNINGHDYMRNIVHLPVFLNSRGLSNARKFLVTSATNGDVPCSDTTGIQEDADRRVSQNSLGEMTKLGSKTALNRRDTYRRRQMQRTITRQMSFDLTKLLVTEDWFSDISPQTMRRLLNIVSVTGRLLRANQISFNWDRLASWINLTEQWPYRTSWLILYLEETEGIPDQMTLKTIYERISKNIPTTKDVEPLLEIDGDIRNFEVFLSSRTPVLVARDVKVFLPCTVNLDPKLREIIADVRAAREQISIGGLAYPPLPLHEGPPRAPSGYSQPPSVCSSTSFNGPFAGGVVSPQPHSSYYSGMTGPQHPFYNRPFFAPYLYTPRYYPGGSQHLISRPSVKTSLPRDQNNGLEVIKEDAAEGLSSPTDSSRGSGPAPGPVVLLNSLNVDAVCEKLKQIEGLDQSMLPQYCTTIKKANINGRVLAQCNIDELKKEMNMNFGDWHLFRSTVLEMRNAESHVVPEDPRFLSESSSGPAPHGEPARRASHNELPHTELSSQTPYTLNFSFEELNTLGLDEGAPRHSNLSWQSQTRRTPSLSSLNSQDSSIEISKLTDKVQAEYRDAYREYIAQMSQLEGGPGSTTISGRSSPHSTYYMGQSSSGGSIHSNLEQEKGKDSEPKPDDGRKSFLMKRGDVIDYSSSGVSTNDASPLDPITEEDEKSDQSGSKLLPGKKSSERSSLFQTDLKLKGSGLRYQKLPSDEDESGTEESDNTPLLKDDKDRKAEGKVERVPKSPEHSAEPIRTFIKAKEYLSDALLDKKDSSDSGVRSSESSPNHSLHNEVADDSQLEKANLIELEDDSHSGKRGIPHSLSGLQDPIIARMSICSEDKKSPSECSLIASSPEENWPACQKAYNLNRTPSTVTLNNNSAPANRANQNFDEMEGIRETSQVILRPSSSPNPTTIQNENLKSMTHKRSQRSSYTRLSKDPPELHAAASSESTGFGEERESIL
UniProt P23458: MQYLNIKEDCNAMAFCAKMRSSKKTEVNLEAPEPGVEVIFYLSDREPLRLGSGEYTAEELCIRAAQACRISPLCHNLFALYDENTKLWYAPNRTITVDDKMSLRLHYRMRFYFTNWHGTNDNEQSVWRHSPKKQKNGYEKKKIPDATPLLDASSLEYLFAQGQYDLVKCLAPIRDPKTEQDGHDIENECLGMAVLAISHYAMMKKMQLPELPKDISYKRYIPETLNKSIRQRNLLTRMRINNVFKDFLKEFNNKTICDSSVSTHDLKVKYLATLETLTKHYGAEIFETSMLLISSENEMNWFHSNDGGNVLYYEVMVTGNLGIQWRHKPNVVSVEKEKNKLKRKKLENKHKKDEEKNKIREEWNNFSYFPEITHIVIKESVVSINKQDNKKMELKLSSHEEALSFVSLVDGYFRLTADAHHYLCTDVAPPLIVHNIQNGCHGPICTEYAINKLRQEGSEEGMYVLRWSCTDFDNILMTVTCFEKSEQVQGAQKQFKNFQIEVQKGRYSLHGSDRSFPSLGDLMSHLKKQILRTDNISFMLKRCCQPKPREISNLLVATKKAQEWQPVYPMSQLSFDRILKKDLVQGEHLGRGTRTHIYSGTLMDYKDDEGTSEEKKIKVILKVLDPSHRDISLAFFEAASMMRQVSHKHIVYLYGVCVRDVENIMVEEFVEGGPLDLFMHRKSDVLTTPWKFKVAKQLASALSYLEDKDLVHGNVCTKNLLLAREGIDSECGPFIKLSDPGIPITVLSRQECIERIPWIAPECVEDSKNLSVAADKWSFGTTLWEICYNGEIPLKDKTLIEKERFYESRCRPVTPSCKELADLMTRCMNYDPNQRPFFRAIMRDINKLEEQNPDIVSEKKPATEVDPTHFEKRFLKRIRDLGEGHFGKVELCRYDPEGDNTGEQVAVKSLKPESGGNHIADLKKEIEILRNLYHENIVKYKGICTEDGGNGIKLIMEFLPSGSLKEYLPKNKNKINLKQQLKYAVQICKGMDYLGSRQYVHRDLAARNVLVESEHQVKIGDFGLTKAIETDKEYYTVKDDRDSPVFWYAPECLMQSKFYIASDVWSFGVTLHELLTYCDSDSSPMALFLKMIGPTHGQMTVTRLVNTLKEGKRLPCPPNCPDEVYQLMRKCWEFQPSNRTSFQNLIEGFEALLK
UniProt Q9Y2K7, 707-733: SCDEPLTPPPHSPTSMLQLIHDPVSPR
UniProt P27987: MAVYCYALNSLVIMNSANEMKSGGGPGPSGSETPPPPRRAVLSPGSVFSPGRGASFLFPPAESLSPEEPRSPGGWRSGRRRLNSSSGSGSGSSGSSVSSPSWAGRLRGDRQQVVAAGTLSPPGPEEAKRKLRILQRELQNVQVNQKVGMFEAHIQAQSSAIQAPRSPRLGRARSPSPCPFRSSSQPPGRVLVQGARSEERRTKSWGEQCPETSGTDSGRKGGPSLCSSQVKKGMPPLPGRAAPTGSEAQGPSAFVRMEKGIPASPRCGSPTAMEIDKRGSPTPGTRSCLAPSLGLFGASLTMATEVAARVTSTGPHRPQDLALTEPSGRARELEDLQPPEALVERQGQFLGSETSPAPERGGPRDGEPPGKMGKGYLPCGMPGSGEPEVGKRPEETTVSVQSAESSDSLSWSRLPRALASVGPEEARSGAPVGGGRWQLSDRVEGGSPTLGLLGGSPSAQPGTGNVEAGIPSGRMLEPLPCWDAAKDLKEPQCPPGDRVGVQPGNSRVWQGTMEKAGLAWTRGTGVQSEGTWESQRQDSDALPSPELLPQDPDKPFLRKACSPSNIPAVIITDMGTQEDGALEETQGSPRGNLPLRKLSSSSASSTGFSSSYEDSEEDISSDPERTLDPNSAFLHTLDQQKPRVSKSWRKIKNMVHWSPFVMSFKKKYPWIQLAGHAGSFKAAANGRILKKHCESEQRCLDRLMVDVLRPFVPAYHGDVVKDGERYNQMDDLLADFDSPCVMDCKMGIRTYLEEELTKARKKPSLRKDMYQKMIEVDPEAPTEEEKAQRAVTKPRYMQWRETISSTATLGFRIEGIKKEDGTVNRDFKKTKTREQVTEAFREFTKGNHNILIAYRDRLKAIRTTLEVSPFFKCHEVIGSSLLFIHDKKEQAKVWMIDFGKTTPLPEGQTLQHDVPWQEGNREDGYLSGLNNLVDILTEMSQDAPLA
UniProt O60333: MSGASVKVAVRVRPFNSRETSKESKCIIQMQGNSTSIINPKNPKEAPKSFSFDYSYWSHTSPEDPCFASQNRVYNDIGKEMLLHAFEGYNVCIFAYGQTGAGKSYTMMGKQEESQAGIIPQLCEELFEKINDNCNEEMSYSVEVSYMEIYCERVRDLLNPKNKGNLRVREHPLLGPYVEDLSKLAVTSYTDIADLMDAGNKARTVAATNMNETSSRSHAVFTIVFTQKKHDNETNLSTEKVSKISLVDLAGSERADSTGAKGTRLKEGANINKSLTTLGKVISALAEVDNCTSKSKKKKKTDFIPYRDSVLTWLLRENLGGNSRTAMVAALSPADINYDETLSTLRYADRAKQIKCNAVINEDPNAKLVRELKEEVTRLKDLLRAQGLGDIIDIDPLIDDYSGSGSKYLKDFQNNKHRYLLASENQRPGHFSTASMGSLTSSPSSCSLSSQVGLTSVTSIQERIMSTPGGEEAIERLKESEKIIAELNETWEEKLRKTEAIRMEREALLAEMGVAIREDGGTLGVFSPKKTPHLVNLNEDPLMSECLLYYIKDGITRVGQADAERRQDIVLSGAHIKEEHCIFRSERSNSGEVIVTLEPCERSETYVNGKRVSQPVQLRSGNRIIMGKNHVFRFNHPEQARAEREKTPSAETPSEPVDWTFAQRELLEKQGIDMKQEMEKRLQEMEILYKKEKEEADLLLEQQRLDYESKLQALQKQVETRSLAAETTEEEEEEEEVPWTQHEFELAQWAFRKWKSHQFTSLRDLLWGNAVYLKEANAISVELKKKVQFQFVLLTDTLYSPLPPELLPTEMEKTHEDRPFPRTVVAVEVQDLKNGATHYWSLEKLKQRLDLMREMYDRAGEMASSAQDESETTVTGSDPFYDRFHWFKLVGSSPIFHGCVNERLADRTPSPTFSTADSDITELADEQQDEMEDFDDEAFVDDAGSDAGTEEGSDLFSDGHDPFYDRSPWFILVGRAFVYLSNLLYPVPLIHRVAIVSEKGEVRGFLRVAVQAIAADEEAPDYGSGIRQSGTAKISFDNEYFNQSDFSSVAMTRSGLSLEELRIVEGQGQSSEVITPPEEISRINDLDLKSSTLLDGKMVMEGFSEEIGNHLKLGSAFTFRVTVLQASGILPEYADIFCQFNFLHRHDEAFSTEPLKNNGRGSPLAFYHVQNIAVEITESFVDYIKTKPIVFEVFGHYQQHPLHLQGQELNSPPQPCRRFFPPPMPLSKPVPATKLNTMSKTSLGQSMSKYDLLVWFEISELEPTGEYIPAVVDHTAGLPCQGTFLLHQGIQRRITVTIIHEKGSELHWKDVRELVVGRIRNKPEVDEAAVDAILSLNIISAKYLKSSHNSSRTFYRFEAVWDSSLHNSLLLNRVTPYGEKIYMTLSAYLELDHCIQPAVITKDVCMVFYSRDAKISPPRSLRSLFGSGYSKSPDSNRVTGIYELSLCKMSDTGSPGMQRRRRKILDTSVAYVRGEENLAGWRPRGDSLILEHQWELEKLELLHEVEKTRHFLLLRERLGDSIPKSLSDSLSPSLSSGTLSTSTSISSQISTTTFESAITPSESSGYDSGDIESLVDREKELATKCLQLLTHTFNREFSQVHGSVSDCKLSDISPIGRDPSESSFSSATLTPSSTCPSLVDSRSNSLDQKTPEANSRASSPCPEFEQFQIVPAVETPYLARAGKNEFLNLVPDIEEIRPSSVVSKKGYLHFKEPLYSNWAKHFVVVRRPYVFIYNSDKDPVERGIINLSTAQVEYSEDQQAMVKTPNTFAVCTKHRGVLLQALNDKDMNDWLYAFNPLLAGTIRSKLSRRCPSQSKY
UniProt Q92993, 190-211: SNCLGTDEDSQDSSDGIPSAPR
UniProt Q92993, 123-145: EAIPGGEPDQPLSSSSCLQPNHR

Assays:
[1] = compound: ClCC(=O)N[C@@H]1CCCc2ccccc12; test: log2 mean competition ratio of IA-DTB cysteine labelling (DMSO/compound) (log2 ratio); higher = stronger cysteine engagement by compound; settings: treatment time: 4 h, cell line lysate: HEK293T
Experimental: (§1)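 IA-DTB competitive cysteine chemoproteomics in HEK293T RIPA lysate. Lysates were treated with compound 29 or 30 at 50 or 200 µM for 4 h, then IA-DTB (500 µM, 1 h), trypsin-digested, NeutrAvidin-enriched and analysed by diaPASEF. Competition ratio = intensity DMSO / intensity compound (n=4 treated, n=64 DMSO); binding: mean log2 CR ≥ 1 and p ≤ 0.05 plus QC filters. Target is the cysteine site.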

[2] = compound: ClCC(=O)N[C@H]1CCCc2ccccc12; test: as above; settings: treatment time: 4 h, cell line lysate: HEK293T
Experimental: as §1

| Target | log2 mean competition ratio ([1]; 50 µM) | log2 mean competition ratio ([1]; 200 µM) | log2 mean competition ratio ([2]; 50 µM) | log2 mean competition ratio ([2]; 200 µM) |
| --- | --- | --- | --- | --- |
| KATNA1 C266 (UniProt O75449) | -0.158 | 0.192 | -0.0917 | 0.158 |
| KIDINS220 C747 (UniProt Q9ULH0) | 0.306 | 0.0313 | 0.837 | 0.224 |
| JAK1 C944 (UniProt P23458) | -0.0598 | 0.0699 | -0.226 | 0.0576 |
| KDM2A C708 (UniProt Q9Y2K7) | 0.376 | 0.111 | 0.105 | -0.00394 |
| KAZN C348 (UniProt Q674X7) | 0.00031 | 0.101 | 0.107 | 0.129 |
| KDM3A C304 (UniProt Q9Y4C1) | 0.0275 | 0.0518 | 0.489 | 0.107 |
| KIAA1107 C311 | 0.19 | -0.182 | 0.211 | -0.145 |
| ITPKB C267 (UniProt P27987) | 0.144 | 0.234 | -0.195 | -0.568 |
| KIF11 C734 (UniProt P52732) | 0.22 | -0.0808 | -0.00196 | -0.0938 |
| KIF1B C356 (UniProt O60333) | -0.0875 | -0.0688 | -0.22 | -0.0391 |
| IRF2BPL C63 (UniProt Q9H1B7) | -0.0505 | -0.0469 | 0.0573 | -0.00955 |
| IRGQ C340 (UniProt Q8WZA9) | -0.0905 | -0.0772 | 0.209 | 0.174 |
| JAK1 C257 (UniProt P23458) | -0.0286 | 0.053 | -0.394 | 0.0236 |
| KARS1 C434 (UniProt Q15046) | -0.307 | -0.48 | 0.338 | -0.128 |
| KIAA2013 C185 (UniProt Q8IYS2) | -0.0597 | 0.339 | -0.358 | 0.162 |
| IVNS1ABP C32 (UniProt Q9Y6Y0) | -0.0167 | -0.0254 | 0.185 | 0.0985 |
| ITFG2 C140 | -0.308 | -0.133 | -0.0296 | 0.0716 |
| KAT5 C192 (UniProt Q92993) | -0.358 | 0.248 | 0.256 | -0.1 |
| KAT5 C139 (UniProt Q92993) | -0.187 | 0.461 | -0.185 | 0.265 |
| KIF2A C199 (UniProt O00139) | -0.223 | -0.0749 | -0.236 | 0.0271 |

Shown as tab-separated lines: part of the list above.
Target	log2 mean competition ratio ([1]; 50 µM)	log2 mean competition ratio ([1]; 200 µM)	log2 mean competition ratio ([2]; 50 µM)	log2 mean competition ratio ([2]; 200 µM)
JAK1 C944 (UniProt P23458)	-0.0598	0.0699	-0.226	0.0576
ITPKB C267 (UniProt P27987)	0.144	0.234	-0.195	-0.568
IRF2BPL C63 (UniProt Q9H1B7)	-0.0505	-0.0469	0.0573	-0.00955
IRGQ C340 (UniProt Q8WZA9)	-0.0905	-0.0772	0.209	0.174
KAT5 C139 (UniProt Q92993)	-0.187	0.461	-0.185	0.265
